Laboratory results: patent US4528290A, “Stimulating dopamine D-1 receptors” (Eli Lilly and Company, priority 1984, dated 1985)

Chains of the proteins cited; added tags and fusions are not shown.
UniProt P18901, whole entry: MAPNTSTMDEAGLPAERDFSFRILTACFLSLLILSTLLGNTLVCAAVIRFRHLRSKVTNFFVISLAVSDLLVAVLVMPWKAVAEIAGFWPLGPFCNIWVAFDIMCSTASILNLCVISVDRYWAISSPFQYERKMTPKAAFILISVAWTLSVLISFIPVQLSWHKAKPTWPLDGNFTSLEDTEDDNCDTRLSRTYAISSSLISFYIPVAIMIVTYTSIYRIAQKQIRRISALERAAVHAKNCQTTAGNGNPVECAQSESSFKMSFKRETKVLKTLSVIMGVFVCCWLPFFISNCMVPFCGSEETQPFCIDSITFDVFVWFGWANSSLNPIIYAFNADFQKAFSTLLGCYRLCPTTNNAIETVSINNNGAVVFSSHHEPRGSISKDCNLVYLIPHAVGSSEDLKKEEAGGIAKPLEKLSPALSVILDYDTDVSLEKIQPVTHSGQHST

Target: dopamine D-1 receptors (adenylate cyclase in rat striatal membrane) (Rattus norvegicus, UniProt P18901)
Assay: biochemical
Conditions: read-out: Cyclic AMP Formation as a percent of control

SMILES	remaining activity at 50 µM [%]
CCCN1CCC[C@@H]2Cc3[nH]ncc3C[C@H]21 (relative stereo) [Racemate, trans-(±)-5-n-propyl-4,4a,5,6,7,8,8a,9-octahydro-1H(and 2H)-pyrazolo[4,3-g]quinoline]	116 ± 13.3
CCCN1CCC[C@@H]2Cc3[nH]ncc3C[C@H]21 [4aR, 8aR enantiomer, 4aR,8aR-5-n-propyl-4,4a,5,6,7,8,8a,9-octahydro-1H(and 2H)-pyrazolo[4,3-g]-quinoline]	114 ± 10.4
CCCN1CCC[C@H]2Cc3[nH]ncc3C[C@@H]21 [4aS, 8aS enantiomer, 4aS,8aS-5-n-propyl-4,4a,5,6,7,8,8a,9-octahydro-1H(and 2H)-pyrazolo[3,4-g]quinoline]	142 ± 9.3
